# Results as given in PubChem BioAssay AID2685 (National Center for Advancing Translational Sciences (NCATS), 2010).
# This is one part of the list. These are further read-outs of the screen, such as a control signal, another cell line or another target. No call is given for them. Most of these compounds were active or inconclusive in the main read-out, so they are no random draw. Potencies come from curve fits of mixed quality, noted in brackets.
# Test: qHTS Assay for Lipid Storage Modulators in Drosophila S3 Cells;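 for cell number change: cells counted by Cell Tracker Red CMTPX staining in the red channel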
# Conditions: BODIPY lipid droplet fluorescence, 18-24 h; for cell number change: measured here: cell count max response, cells fed with added oleic acid
# How it was run: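 Drosophila S3 cells got compounds at several concentrations plus oleic acid (400 uM solution). Laser-scanning cytometry with 488 nm excitation read lipid droplets at 500-530 nm and cells at 575-640 nm. Percent activity was relative to 20 uM Triacsin C.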
# [1] = measured here: cell number channel AC50, cells fed with added oleic acid
# [2] = measured here: lipid fluorescence (Fed channel) AC50, cells fed with added oleic acid
Structure (SMILES),cell number change [%],AC50 [1],AC50 [2]
CCOC(=O)C1CCN(C(=O)CN(Cc2ccc(Cl)cc2)S(C)(=O)=O)CC1,-77.3,"29.1 µM [falling, single point]","0.259 µM [falling, full curve, poor fit]"
Cc1cc(C)c2oc(C(=O)Nc3ccc(S(=O)(=O)N4CCCC(C)C4)cc3)cc(=O)c2c1 (stereo unspecified),–,"5.8 µM [rising, single point]",–
Cc1ccn2cc(-c3ccc(NC(=O)c4ccco4)cc3)nc2c1,-2.84,–,"29.1 µM [falling, single point]"
COCc1nc2ccccc2n1CCc1ccccc1,-27,–,"2.06 µM [falling, partial curve, poor fit]"
CC1CCC2(CC1)NC(=O)N(CC(=O)Nc1cccc(C#N)c1)C2=O (stereo unspecified),-11.9,–,"2.06 µM [falling, full curve, poor fit]"
O=C(Nc1ccc(N2CCN(C(=O)c3cccs3)CC2)cc1)c1ccco1,10.5,–,–
COCCN(Cc1cc2cc3c(cc2nc1Cl)OCO3)C(=O)Nc1ccccc1OC,-2.33,–,–
CC(C)OCCCn1c(NN)nc2ccccc2c1=O,35.9,"0.291 µM [rising, partial curve]",–
O=C(O)c1cc(NCc2cccs2)ccc1N1CCOCC1,3.96,–,–
CC(=O)c1ccc(N2Cc3ccccc3C2)cc1,1.4,–,"5.8 µM [rising, partial curve]"
Cc1sc2nc(C3CC3)nc(N3CCN(C(=O)c4ccc(Cl)cc4)CC3)c2c1C,30.6,"0.58 µM [rising, full curve, poor fit]","16.4 µM [rising, partial curve]"
Cc1noc(C)c1C(=O)N1CCN(Cc2ccc3c(c2)OCO3)CC1,-1.59,–,"6.51 µM [rising, single point]"
CCN1CCC2(CC1)N=C(c1ccc(F)cc1)C(=S)N2C(=O)c1ccc(C)cc1,-72.6,"23.1 µM [falling, partial curve]","23.1 µM [falling, partial curve]"
COc1cc(NC(=O)NNC(=O)c2cc3occc3n2C)cc(OC)c1OC,-19.2,–,"29.1 µM [rising, single point]"
COc1ccc(CNC(N)=O)cc1OC,31.8,"0.206 µM [rising, full curve, poor fit]",–
Nc1ncnc(Nc2cccc(Cl)c2Cl)n1,29.3,"0.0517 µM [rising, full curve, poor fit]","23.1 µM [rising, partial curve]"
COc1ccccc1C1=NOC(C(=O)N2CCN(C(=O)c3ccco3)CC2)C1 (stereo unspecified),11,–,"11.6 µM [rising, partial curve]"
Cc1ccc(S(=O)(=O)N2CCOCC2)cc1NC(=O)CSc1nnnn1C,-29.2,–,"0.0058 µM [falling, full curve, poor fit]"
CC(C)NC(=S)N/N=C1\CCCc2ccccc21,118,"23.1 µM [rising, partial curve, poor fit]","2.31 µM [rising, partial curve]"
Cc1ccc(C(C)C)c(OCCCCN2CCNCC2)c1,25.8,–,"29.1 µM [rising, single point]"

# For convenience, part of the list above.
Structure (SMILES),cell number change [%],AC50 [1],AC50 [2]
O=C(Nc1ccc(N2CCN(C(=O)c3cccs3)CC2)cc1)c1ccco1,10.5,–,–
COCCN(Cc1cc2cc3c(cc2nc1Cl)OCO3)C(=O)Nc1ccccc1OC,-2.33,–,–

# Following part

Structure (SMILES),cell number change [%],AC50 [1],AC50 [2]
CCCC(=O)Nc1ccc2oc(-c3cccnc3)nc2c1,55.5,"29.1 µM [rising, single point]","4.61 µM [rising, single point]"
CCOC(=O)c1c(NC(=O)COC(=O)Cc2n[nH]c(=O)c3ccccc23)sc(C(=O)N(C)C)c1C,–,–,"5.8 µM [rising, single point]"
NNC(=O)c1cc2c(N3CCC(Cc4ccccc4)CC3)ncnc2s1,9.26,–,–
CCOC(=O)Cc1nnc(Nc2cc(C)ccc2C)c2ccccc12,-36.4,"2.59 µM [falling, full curve]","4.61 µM [falling, partial curve]"
O=C1C=C(c2cc(F)ccc2F)C[C@@H](c2ccc(F)cc2)C1,-19,"0.366 µM [falling, partial curve, poor fit]","0.231 µM [rising, full curve]"
O=C1C2C3C=CC(C2C(=O)N1CCCO)C1C2C(=O)N(CCCO)C(=O)C2C31 (stereo unspecified),–,"0.731 µM [falling, single point]","8.2 µM [rising, partial curve, poor fit]"
C=CCOC(=O)Nc1c(C(=O)OC)[nH]c2ccccc12,38.2,"9.2 µM [rising, partial curve, poor fit]",–
C=CCN=c1scc(-c2ccc(F)cc2)n1/N=C/c1ccccn1,-27.6,–,"20.6 µM [falling, single point]"
CCN(CC)CC(=O)Nc1ccc(/C(C)=N/NC2=NCCN2)cc1,36.2,–,–
Cc1ccc(Oc2nc(CN3CCOCC3)nc3sc4c(c23)CCC(C)C4)cc1C (stereo unspecified),24.3,–,"3.66 µM [rising, single point]"
CC(C)c1ccc(NC(=S)NNC(=O)c2cccnc2)cc1,-52,"32.6 µM [falling, single point]","29.1 µM [falling, partial curve, poor fit]"
Cc1c(NC(=O)Nc2cc(Cl)ccc2Cl)c(=O)n(-c2ccccc2)n1C,19.7,–,–
COc1ccc(Cc2nnc3sc(SCC(=O)Nc4ccccc4)nn3c2=O)cc1OC,-30.2,"0.731 µM [falling, full curve]",–
COc1ccccc1OCCSc1nc2ccc([N+](=O)[O-])cc2s1,39.4,"8.2 µM [rising, partial curve]","18.4 µM [rising, single point]"
Cc1cccc(-c2nnc(SC(C)C(=O)N3CCOCC3)o2)c1 (stereo unspecified),17.8,–,"2.06 µM [falling, partial curve]"
O=C(N=Nc1c(O)[nH]c2ccc(Br)cc12)c1cc(-c2cccs2)nc2ccccc12,-30.3,"23.1 µM [falling, single point]","0.58 µM [falling, single point]"
Cc1ccc(C(=O)NNC(=S)NC(=O)c2ccc(Cl)cc2Cl)cc1,-0.465,–,–
Cc1c(CCOC(=O)c2cc([N+](=O)[O-])cc([N+](=O)[O-])c2)sc[n+]1CC(=O)c1ccc(Br)cc1,–,"0.0651 µM [falling, full curve, poor fit]",–
Cc1cccc(C)c1Nc1nc2ccccc2o1,–,–,"0.231 µM [rising, full curve]"
O=C(O)C1CSCN1S(=O)(=O)c1cccc2nsnc12 (stereo unspecified),-8.25,–,"0.461 µM [falling, full curve, poor fit]"

Structure (SMILES),cell number change [%],AC50 [1],AC50 [2]
CCn1cnc2cc(NCc3ccc(Cl)cc3)ccc21,27.7,–,–
NS(=O)(=O)c1ccc(CCNC(=O)CSCc2ccccc2)cc1,8.98,–,"8.2 µM [rising, partial curve]"
Cc1ccccc1C(=O)NCc1nnc(SCC(=O)N2c3ccccc3Sc3ccccc32)n1C,-16.1,–,"6.51 µM [rising, single point]"
O=C1CCCN2N=C(SCC(=O)Nc3ccc(Cl)cc3)SC2=N1,9.24,–,–
CC(=O)NC(CC(=O)NCCc1ccccc1)c1ccccc1 (stereo unspecified),7.37,–,–
O=C(CSc1nnnn1-c1ccccc1)NCC1(N2CCCCC2)CCCCC1,-45.4,"0.517 µM [falling, full curve, poor fit]","20.6 µM [falling, single point]"
c1ccc(-c2nc3nc4ccccc4nc3n2CC2CCCO2)cc1 (stereo unspecified),15.9,–,–
Cn1c(=O)c2c(nc(SCCOc3ccc4ccc(=O)oc4c3)n2C)n(C)c1=O,–,–,"2.06 µM [rising, partial curve]"
O=C(NCc1ccccc1)c1ccc(F)c(F)c1,30.7,–,–
Cc1ccc(NC(=O)Nc2nc(-c3ccc(C)s3)cs2)cc1,-38.7,"7.31 µM [falling, partial curve]",–
Cc1ccc(-c2nnn(CC(=O)NCCc3ccc4c(c3)OCO4)n2)cc1,10.7,–,"29.1 µM [rising, single point]"
CCOC(=O)c1c(/C=N/Nc2ccccc2)c2sc(C)cc2n1C,35.3,–,"0.164 µM [rising, full curve]"
O=C(c1ccco1)N1CCN(C(=O)C(Cc2ccccc2)NS(=O)(=O)c2cccs2)CC1 (stereo unspecified),19.8,–,"13 µM [rising, single point]"
COC(=O)C(C)Sc1nc2c(cnn2-c2ccc(F)cc2)c(=O)[nH]1 (stereo unspecified),-4.17,"0.291 µM [rising, partial curve, poor fit]","0.58 µM [rising, single point]"
O=C(O)CCC(=O)CCC(=O)c1ccc(Cl)cc1,-46.8,"29.1 µM [falling, single point]","11.6 µM [falling, partial curve]"
Cc1ccc(N2CC(C(=O)OCc3ccccc3)CC2=O)cc1 (stereo unspecified),-25.6,–,"2.31 µM [falling, full curve, poor fit]"
CC(=O)N(C(C)=O)c1nc(-c2ccccc2)cn1/N=C/c1ccccc1,–,–,"1.46 µM [falling, partial curve]"
COc1ccc(NC(=O)CN2CCN(CC(=O)Nc3ccc(OC)c(OC)c3)CC2)cc1,17,–,"14.6 µM [rising, partial curve]"
CCC(NC(=O)NNC(=O)c1ccncc1)(C(F)(F)F)C(F)(F)F,0.427,–,"1.46 µM [falling, partial curve, poor fit]"
COCCN(C(=O)COC(=O)CCSc1ccc(F)cc1)c1c(N)n(Cc2ccccc2)c(=O)[nH]c1=O,1.39,–,"3.26 µM [rising, single point]"

# Some of these compounds in order of count of non-hydrogen atoms, descending:
Structure (SMILES),cell number change [%],AC50 [1],AC50 [2]
COCCN(C(=O)COC(=O)CCSc1ccc(F)cc1)c1c(N)n(Cc2ccccc2)c(=O)[nH]c1=O,1.39,–,"3.26 µM [rising, single point]"
Cc1ccccc1C(=O)NCc1nnc(SCC(=O)N2c3ccccc3Sc3ccccc32)n1C,-16.1,–,"6.51 µM [rising, single point]"
COc1ccc(NC(=O)CN2CCN(CC(=O)Nc3ccc(OC)c(OC)c3)CC2)cc1,17,–,"14.6 µM [rising, partial curve]"
O=C(CSc1nnnn1-c1ccccc1)NCC1(N2CCCCC2)CCCCC1,-45.4,"0.517 µM [falling, full curve, poor fit]","20.6 µM [falling, single point]"
Cc1ccc(-c2nnn(CC(=O)NCCc3ccc4c(c3)OCO4)n2)cc1,10.7,–,"29.1 µM [rising, single point]"
CC(=O)N(C(C)=O)c1nc(-c2ccccc2)cn1/N=C/c1ccccc1,–,–,"1.46 µM [falling, partial curve]"
c1ccc(-c2nc3nc4ccccc4nc3n2CC2CCCO2)cc1 (stereo unspecified),15.9,–,–
CCC(NC(=O)NNC(=O)c1ccncc1)(C(F)(F)F)C(F)(F)F,0.427,–,"1.46 µM [falling, partial curve, poor fit]"
O=C1CCCN2N=C(SCC(=O)Nc3ccc(Cl)cc3)SC2=N1,9.24,–,–
Cc1ccc(NC(=O)Nc2nc(-c3ccc(C)s3)cs2)cc1,-38.7,"7.31 µM [falling, partial curve]",–
CCn1cnc2cc(NCc3ccc(Cl)cc3)ccc21,27.7,–,–
O=C(NCc1ccccc1)c1ccc(F)c(F)c1,30.7,–,–
